Results are given in words; binding and its absence hold for the method and conditions named. Binding seen in cells or lysates may run through a third protein. Some binding calls cover weakened binding; strength is not graded here.

By UniProt entry, the sequences of proteins in these tests, tags left out.
UniProt Q9WTL8: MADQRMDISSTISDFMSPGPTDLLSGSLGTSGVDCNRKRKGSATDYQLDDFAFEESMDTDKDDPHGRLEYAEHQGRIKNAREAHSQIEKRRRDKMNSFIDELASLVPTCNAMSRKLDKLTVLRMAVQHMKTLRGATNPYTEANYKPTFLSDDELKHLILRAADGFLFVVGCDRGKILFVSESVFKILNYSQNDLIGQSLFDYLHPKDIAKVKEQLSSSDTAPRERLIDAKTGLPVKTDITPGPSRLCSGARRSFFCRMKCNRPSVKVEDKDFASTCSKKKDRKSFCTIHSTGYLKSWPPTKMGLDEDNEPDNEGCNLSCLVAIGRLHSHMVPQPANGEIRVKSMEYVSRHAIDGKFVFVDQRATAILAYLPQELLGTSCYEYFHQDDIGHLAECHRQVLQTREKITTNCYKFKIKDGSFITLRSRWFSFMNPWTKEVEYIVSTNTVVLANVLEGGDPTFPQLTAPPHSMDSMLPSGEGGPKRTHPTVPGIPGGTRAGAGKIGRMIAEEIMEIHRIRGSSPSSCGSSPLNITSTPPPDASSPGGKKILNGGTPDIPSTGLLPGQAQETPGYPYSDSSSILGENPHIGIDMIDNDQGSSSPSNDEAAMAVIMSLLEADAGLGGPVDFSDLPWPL

The target of this assay is brain and muscle ARNT-like 1 (Bmal1) (mouse (endogenous in gastrocnemius)) (UniProt Q9WTL8). The experiment in a line: co-IP; total protein of gastrocnemius of WT and Chrono TG mice; precleared with protein A/G agarose; 3 ug anti-Bmal1 in lysate with 1 mg total protein, 4 °C overnight; protein A/G agarose 4 h; washed four times with cold TNE buffer; Western blot for Chrono.

B1: ChIP-derived repressor of network oscillator (Chrono) (protein, UniProt Q3TQ03 1-375)
chain: MDSPSSVSSYSSSSLSPSFSTSSVNSDFSFPSDNEREGKGTHELRPDTVGQRGGSRPSPGPIRCRHRPRVSSNQHTAPHLEQQGSEVKRSRDGEQETSLNTQGCTTEGDLLFAQKCKELQGFIRPLTDLLNGLKMGRFDRGLSSFQQSVAMDRIQRIVGVLQKPQMGERYLGTLLQVEGMLKTWFPHIAAQKSSSGGSRHQISKHFPSHHGDPGAASPAPLLEKMGQTQLGHLVLKPKQPWHLTGWPAMNLTWIHSTPICNPPLSSQGSASGHSPIGTGASIGVILVLQKGGQPFTHSAPGTPVPPTPLSPVVPGDLKKLPGEEPRCHSLPVTLPSDWSCILCPPVLPTTDREMTKGHPEPQMTSHPPVAPDPQP
With B1, the binding result is reported as “binds”.

The record behind these values is article PMC9410257.
